# Laboratory results reported in PubChem BioAssay AID493014 (National Center for Advancing Translational Sciences (NCATS), 2011).
# The list shows a part of the results. Further columns of the screen follow, without active or inactive calls. The list favours compounds with an active or inconclusive main result. Potencies come from curve fits of mixed quality, noted in brackets.
# Test: qHTS Assay to Find Inhibitors of Chronic Active B-Cell Receptor Signaling
# Conditions: ABC-DLBCL IkBa-CBG/CBR reporter, luminescence ratio (green luciferase fused to IkBa over red control in TMD8 lymphoma cells), 4 h
# How it was run: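 Doxycycline induced both beetle luciferases in TMD8 lymphoma cells; IKK-driven degradation limits the IkappaBalpha-fused green signal, while red luminescence normalises for cell number and nonspecific effects. Compounds tested up to 46 uM, 4 hrs.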
# [1] = measured here: CBR red luminescence, cell number
# [2] = measured here: IkBa-CBG green luminescence
SMILES,AC50 [1],AC50 [2]
CCOc1ccc(C(=O)O/N=C(\N)c2ccccn2)cc1,"2.82 µM [falling, full curve]",–
O=[N+]([O-])c1ccc(Cl)c(S(=O)(=O)Nc2cccc(-c3ccc(N4CCCC4)nn3)c2)c1,–,"6.51 µM [rising, partial curve, poor fit]"
Cn1nc(C(=O)Nc2ccc3c(c2)OCCO3)cc1C(=O)O,"11.2 µM [falling, partial curve, poor fit]",–
COC(=O)C1=CN(Cc2ccccc2)C=C(C(=O)OC)C1c1ccc(O)c(OC)c1,"6.31 µM [falling, single point]",–
Cn1cc(Br)c(C(=O)NNC(=O)c2ccc(Cl)cc2)n1,"3.66 µM [falling, partial curve]",–
O=C(Nc1cccc(C(F)(F)F)c1)c1ccc2nc(N3C(=O)CCC3=O)sc2c1,"35.5 µM [falling, single point]",–
CCC(=O)Nc1ccc(C(=O)CSc2nnc(-c3ccc(O)cc3)n2CC2CCCO2)cc1 (configuration not stated),"0.651 µM [falling, partial curve, poor fit]",–
Cc1ccc2c(c1)N(CC(=O)N1CCCc3ccccc31)C(=O)C(C)O2 (configuration not stated),"35.5 µM [rising, single point]",–
CCOC(=O)C1CCN(C(=O)CCN2C(=O)C3C4C=CC(C4)C3C2=O)CC1 (configuration not stated),"2.31 µM [rising, partial curve, poor fit]",–
CCc1ccc(N/C(SC)=C(/C#N)C(N)=O)cc1,"0.708 µM [falling, full curve, poor fit]",–
CCN(CC)CC(=O)Nc1scc2c1c(=O)oc1ccccc12,"2.82 µM [rising, full curve, poor fit]",–
CCc1nc2ccccc2c(C(=O)OCC(=O)N(CC(C)C)c2c(N)n(Cc3ccccc3)c(=O)[nH]c2=O)c1C,"29.1 µM [falling, single point]",–
CCn1nc(C)c(/C=N\NC(=O)c2ccc3c(c2)OCO3)c1C,"8.2 µM [falling, partial curve]",–
COc1cc(CCC(=O)NCc2ccc3c(c2)CCN3C(=O)c2ccc(F)cc2)cc(OC)c1OC,"6.31 µM [rising, single point]",–
O=C(NCc1ccccc1)c1ccc(-c2ccccc2C(F)(F)F)o1,"29.1 µM [falling, single point]",–
O=C(N/N=C/c1ccc2cccnc2c1)c1ccco1,"10 µM [falling, partial curve, poor fit]",–
CCN(CC)S(=O)(=O)c1ccc(NC2c3ccccc3C(=O)N2Cc2ccco2)cc1 (configuration not stated),"35.5 µM [falling, single point]",–
Cn1c(SCc2ccccc2F)nnc1-c1ccccn1,"35.5 µM [falling, single point]",–
CCC(C)NC(=O)c1cc2c(=O)n3cccc(C)c3nc2s1 (configuration not stated),"0.282 µM [rising, full curve, poor fit]",–
FC(F)(F)c1cc(-c2cccs2)nc2ncnn12,"3.98 µM [rising, full curve]",–
Cc1ccnc(NC(=O)C2CCN(S(=O)(=O)c3ccc4c(c3)CC(C)N4C(=O)C3CCC3)CC2)c1 (configuration not stated),"25.1 µM [falling, single point]",–

SMILES,AC50 [1],AC50 [2]
COC(=O)c1cc(C(=O)N2CCN(c3cccc(Cl)c3)CC2)cc([N+](=O)[O-])c1,"10 µM [rising, partial curve]","11.2 µM [falling, partial curve]"
COC(=O)Nc1nc(C)c(C(=O)c2ccccc2)s1,"5.8 µM [falling, single point]",–
CCCCn1c(O)c(/C=C/C=C/C=Nc2ccccc2)sc1=S,"12.6 µM [falling, partial curve, poor fit]",–
O=C1OCCN1C(=O)[C@H]1[C@H](c2ccc(Cl)cc2)C(c2ccc(F)cc2)=NN1c1ccc(Br)cc1,"6.51 µM [rising, full curve]",–
Cc1ccc(S(=O)(=O)N(C)C)cc1NC(=O)COC(=O)/C(=C/c1ccc(F)cc1)c1cccs1,"29.1 µM [falling, single point]",–
C/C(=N\NC(=O)c1c(Br)c(C)nn1C)c1cccc(NC(=O)C2CCC2)c1,"5.01 µM [falling, partial curve]",–
COc1ccc(C2=Nn3c(nnc3-c3ccccc3F)SC2)cc1OC1CCCC1,–,"16.4 µM [falling, partial curve, poor fit]"
COc1ccc(/C=N/NC(=O)c2cc(=O)[nH]c3ccccc23)cc1OC,"12.6 µM [rising, single point]",–
O=C1C(=O)N(CNc2ccccn2)c2ccccc21,"12.6 µM [rising, single point]",–
CCOC(=O)c1c(NC(=S)NC)sc2c1CCCC2,"0.631 µM [falling, full curve, poor fit]",–
CCC1CCC2(CC1)NC(=O)N(CC(=O)Nc1cccc(S(=O)(=O)N(C)c3ccccc3)c1)C2=O (configuration not stated),"18.4 µM [falling, single point]",–
Cc1cnn(C(=S)NCc2ccc(Cl)cc2)c1,"29.1 µM [falling, single point]",–
NC(=S)N/N=C/c1c[nH]c2ccc(OCc3ccccc3)cc12,"6.31 µM [falling, partial curve]",–
O=C(CSc1nnc2ccccn12)Nc1ccc2c(c1)OCCO2,"3.55 µM [falling, single point]",–
Cc1c([N+](=O)[O-])c(N)nn1C,"14.1 µM [rising, partial curve, poor fit]",–
O=S(=O)(Cc1nc2ccccc2s1)c1ccccc1,"5.8 µM [falling, single point]",–
Cc1ccc(Nc2c(-c3ccccn3)nc3cccc(C)n23)cc1,"35.5 µM [falling, single point]",–
CC[N+](CC)(CC=C(C)C)CC(=O)OC,"11.2 µM [rising, partial curve]",–
COc1cc(S(=O)(=O)n2ccc(C)n2)c(OC)cc1Cl,"7.31 µM [rising, partial curve, poor fit]",–
Nc1ccccc1C(=O)Nc1nccs1,–,"3.98 µM [rising, full curve, poor fit]"

# Reprinted from above (3 entries):
SMILES,AC50 [1],AC50 [2]
Cc1ccc(Nc2c(-c3ccccn3)nc3cccc(C)n23)cc1,"35.5 µM [falling, single point]",–
CC[N+](CC)(CC=C(C)C)CC(=O)OC,"11.2 µM [rising, partial curve]",–
COc1cc(S(=O)(=O)n2ccc(C)n2)c(OC)cc1Cl,"7.31 µM [rising, partial curve, poor fit]",–
